Results are given in words; binding and its absence hold for the method and conditions named. Some entries that bind do so weakly or less than the wild type. For part of these data: Where a sequence is shown, tags or fusion partners need not be part of it.
What was measured:
[1] = target: recombinant human IL-23R/Fc chimera (human) (UniProt Q5VWK5); test: phage display panning, protein A capture
[2] = target: recombinant human IL-23R/Fc chimera (human) (UniProt Q5VWK5); test: phage ELISA on coated IL-23R/Fc, anti-M13 detection
[3] = target: human IL-23R expressed on the cell surface (human) (UniProt Q5VWK5); test: flow cytometry on DB cells, 0.1, 0.5 and 1 µg biotinylated no. 1-Fc
[4] = target: human IL-23R expressed on the cell surface (human) (UniProt Q5VWK5); test: flow cytometry on DB cells, FIG. 22 legend
[5] = target: human IL-23R expressed on the cell surface (human) (UniProt Q5VWK5); test: flow cytometry on DB cells treated with IL-23R siRNA or control siRNA

Protein sequences, listed by entry. Tags and fused reporters are not part of them. Lines headed by an entry give the natural chain unless they say otherwise; changes in a name come on top. Residues count along the entry.
UniProt Q5VWK5: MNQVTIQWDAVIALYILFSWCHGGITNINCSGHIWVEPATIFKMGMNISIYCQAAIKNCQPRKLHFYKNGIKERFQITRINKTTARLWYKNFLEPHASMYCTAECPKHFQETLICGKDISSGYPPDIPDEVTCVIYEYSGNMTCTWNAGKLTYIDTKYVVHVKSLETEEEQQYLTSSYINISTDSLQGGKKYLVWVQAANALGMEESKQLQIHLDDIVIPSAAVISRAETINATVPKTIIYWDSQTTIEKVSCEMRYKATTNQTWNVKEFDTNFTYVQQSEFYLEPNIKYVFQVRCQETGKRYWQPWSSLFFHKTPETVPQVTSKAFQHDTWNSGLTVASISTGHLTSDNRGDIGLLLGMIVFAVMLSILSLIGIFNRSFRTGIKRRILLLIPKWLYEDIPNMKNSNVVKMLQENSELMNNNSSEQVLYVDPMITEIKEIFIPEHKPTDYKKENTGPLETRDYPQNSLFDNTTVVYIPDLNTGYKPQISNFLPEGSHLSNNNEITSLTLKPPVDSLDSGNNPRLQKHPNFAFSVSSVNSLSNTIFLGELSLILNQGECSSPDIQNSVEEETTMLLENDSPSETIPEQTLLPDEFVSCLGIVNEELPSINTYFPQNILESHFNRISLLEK
human IL-23R expressed on the cell surface: residues 24-629 of Q5VWK5
recombinant human IL-23R/Fc chimera: residues 24-353 of Q5VWK5

Binder	binding [1]	binding [2]	binding [3]	binding [4]	binding [5]
GWKDYWTTFQLR (peptide, not shown: large carriers) [M13 phage displaying polypeptide no. 14]	binds	binds			
SGASWVQYWVQR (Fc fusion, not shown: a dimerising Fc or GST) [polypeptide no. 1-Fc fusion protein]			binds	binds	binds
GWKDYWTTFQLR (peptide, not shown: large carriers) [M13 phage displaying polypeptide no. 24]	binds				

Source: patent USRE49026
